This passage reports binding signal results from paper PMC7819943, “Rice protein-binding microarrays: a tool to detect cis-acting elements near promoter regions in rice”.

Sequences of proteins named here, by UniProt entry; tags and fusion partners are left off.
UniProt Q0JBA9, entry or part of it: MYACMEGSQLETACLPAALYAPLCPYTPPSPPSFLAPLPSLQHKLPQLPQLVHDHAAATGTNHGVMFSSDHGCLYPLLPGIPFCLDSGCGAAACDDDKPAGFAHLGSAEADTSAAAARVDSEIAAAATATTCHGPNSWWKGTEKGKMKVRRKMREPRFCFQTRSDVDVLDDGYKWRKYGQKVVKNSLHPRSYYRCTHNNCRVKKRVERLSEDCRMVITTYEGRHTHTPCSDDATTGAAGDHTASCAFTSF

The list shows a part of the results.

The target in the test is OsWRKY34 (Oryza sativa, UniProt Q0JBA9 1-250). Kind of test: protein-binding microarray (RPBM); PBS, 2% BSA, 51.3 ng/ul salmon testes DNA, 50 uM zinc acetate, 200 nM TF, 25 C, 1 h; high values mean tight binding. As to conditions: protein: recombinant; tags: N-terminal polyhistidine and DsRed monomer fusion (pET32a); label: CyDye5-dUTP incorporated in the synthesized complementary strand; 3' TTTTT single-stranded linker to array surface; dsDNA, one strand shown. The essentials: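 Binding signal is reported as fluorescence intensity per feature (arbitrary units) from an Axon 4000B scanner. Incubation used 200 nM of each Ni–NTA-purified, N-terminally polyhistidine- and DsRed-fused transcription factor from E. coli BL21-CodonPlus on a double-stranded custom Agilent array for 1 h at 25 °C, with 50 µM zinc acetate in the buffer, followed by washing.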
Regarding “ATACCTAACTCTGCCATTTCCACAGTGTGCTGCCTGTAATCGGAGTCACCTAGTGCAG”, the binding signal is 12300 fluorescence intensity (a.u.).
The same measure for “CACTCCAAAACCCCTTCTCTCTCTTTTCCGTTTTCTTTTCCGGAGTCACCTAGTGCAG”: 9490 fluorescence intensity (a.u.); for “AGCTCGAGTGGACGTTCACCCGTTTATTGTATGTTATCTACGGAGTCACCTAGTGCAG”: 8700 fluorescence intensity (a.u.); for “TTCTTTCTTTTTTGGCGGGGACTACTCTTTACTTGAACCTCGGAGTCACCTAGTGCAG”: 12400 fluorescence intensity (a.u.).
With “ACATTCCCATTTTGCGTTTTCAGATCTCATTTTTTTTCCCCGGAGTCACCTAGTGCAG”, the binding signal was 12000 fluorescence intensity (a.u.).
The result for “CCTGTATTCAATTGCAACCATTCATCTATCATACTCTCTCCGGAGTCACCTAGTGCAG” reads 8450 fluorescence intensity (a.u.); that for “CACCGCCCTTGGCTCGCCCCGCCGCTCGTCCACCACCACGCGGAGTCACCTAGTGCAG”, 10700 fluorescence intensity (a.u.).
As for “GATGAGGAGTGTGGGATGAGGAGAAATGGCTGGGGTTCATCGGAGTCACCTAGTGCAG”, the binding signal was 9170 fluorescence intensity (a.u.).
Regarding “CTTGCAATGTATGCTCACATATTTCTTATTAGTTGTTTCCCGGAGTCACCTAGTGCAG”, the binding signal is 8870 fluorescence intensity (a.u.).
The same measure for “AGTTAAATGTAGCCAAATTCGCCGGCTTCTCCATTGTCTCCGGAGTCACCTAGTGCAG”: 8360 fluorescence intensity (a.u.); for “CGATCTGCTTTTCTTTTTCTTTCCCTGCGCTCTCCTTTTTCGGAGTCACCTAGTGCAG”: 9890 fluorescence intensity (a.u.).
With “AAATGACAAGCCAATTTGTTCTCCTTTGTTTGCTCTGACCCGGAGTCACCTAGTGCAG”, the binding signal was 8370 fluorescence intensity (a.u.).
For “CCCAGGAAACCCTATCTTTTTTCCTCCCTTTAAACTTAACCGGAGTCACCTAGTGCAG”, the binding signal was 9030 fluorescence intensity (a.u.).
The result for “CCCCGCTCCCGCGCGTCGCCGAGCGTTTCACGTTCACAACCGGAGTCACCTAGTGCAG” reads 10300 fluorescence intensity (a.u.); that for “CCCGGCTAACCTCGCCCTCACTCACTCCACTACTACTTTTCGGAGTCACCTAGTGCAG”, 10100 fluorescence intensity (a.u.); that for “ACATGGCCCCACCCTTTTTATTATTTTGTGTGTAATTGACCGGAGTCACCTAGTGCAG”, 9990 fluorescence intensity (a.u.).
The result for “CATATATTTACCTGCGCAAACAAACACTTGACACCAAAATCGGAGTCACCTAGTGCAG” reads 8090 fluorescence intensity (a.u.); that for “TTGACACAGCGTTTACACCCGTGGCCATTCATGTTCTGCTCGGAGTCACCTAGTGCAG”, 8130 fluorescence intensity (a.u.); that for “CCGTTCCCGCGCACATTTTTTCGGCATCCCACCCGCCGATCGGAGTCACCTAGTGCAG”, 9770 fluorescence intensity (a.u.).
The result for “GACCACAACACGCGACGCCACGCCTCCTCCCGATCCGCTCCGGAGTCACCTAGTGCAG” reads 8320 fluorescence intensity (a.u.); that for “TCTTTGTGTTTTTTTTTCCTCTCCTTTTCTTGAGGAATTTCGGAGTCACCTAGTGCAG”, 9700 fluorescence intensity (a.u.).
Take “CGATCAATCTCTCTTTATTTATTTGCAGATCGATCAACCTCGGAGTCACCTAGTGCAG”: the binding signal is 8310 fluorescence intensity (a.u.).
The same measure for “CAGTTCTGGTGCTCCTCCATCTCCGCCGCCGACGACCTCGCGGAGTCACCTAGTGCAG”: 8140 fluorescence intensity (a.u.); for “GAGGTGGTGGGTTTCCCACGTGTGTTCCTTTAGTTCTCTTCGGAGTCACCTAGTGCAG”: 12700 fluorescence intensity (a.u.).
“CCACTTGTATTGCTACTTGCTGTTAGACTATGCCATCAATCGGAGTCACCTAGTGCAG”: the binding signal was 11700 fluorescence intensity (a.u.).
The same measure for “CACCACCACCACTACCACCTCTGCTTTTTCTACCCTCGATCGGAGTCACCTAGTGCAG”: 10800 fluorescence intensity (a.u.); for “GCTTCCCGTCGACGTGCTTCGCCTCCAGCGACTGGAGCTCCGGAGTCACCTAGTGCAG”: 8360 fluorescence intensity (a.u.); for “CACATTAGACCTTTCGTCTTGTTTGTTCGTAATAAGCTTTCGGAGTCACCTAGTGCAG”: 10100 fluorescence intensity (a.u.).
For the sequence “GGTAGCGTCGTTGACGTTCCACTTTGACCTGTTGTATCTCCGGAGTCACCTAGTGCAG”, the binding signal was 8750 fluorescence intensity (a.u.).
As to “ATTCCAGGAAATATCAGGGTTTTCTGTCGTTGCCGCCCATCGGAGTCACCTAGTGCAG”, the binding signal was 8200 fluorescence intensity (a.u.).
The same measure for “CTCCTCTCTTGTCGCCCACACCGGTTGCCGAGCTCTCCTTCGGAGTCACCTAGTGCAG”: 10300 fluorescence intensity (a.u.).
The same measure for “TGTGTTGCTGTTCTATTTCCAGGTGTGATTATTGTTCTGTCGGAGTCACCTAGTGCAG”: 10500 fluorescence intensity (a.u.).
The same measure for “AGGTTCTTGTTGCTGTTGCTGTTCATCATTATCATAGCCACGGAGTCACCTAGTGCAG”: 10500 fluorescence intensity (a.u.).
Take “GCCTTTTTACGACTTTTTTTTCTTTGTGTCAAATCGGACTCGGAGTCACCTAGTGCAG”: the binding signal was 9490 fluorescence intensity (a.u.).
With “CGTAGAAGGCACTACTCATTATCACCGCCTTTTACGTACCCGGAGTCACCTAGTGCAG”, the binding signal is 8480 fluorescence intensity (a.u.).
The same measure for “TTATAGTAGTTCTGTGTGTAGTTTTTTTTTCTTCTGACTCCGGAGTCACCTAGTGCAG”: 11000 fluorescence intensity (a.u.); for “TTTTGCAATGTGATTTGCTGGTTTGGATAGTGGAGAAGTTCGGAGTCACCTAGTGCAG”: 8930 fluorescence intensity (a.u.); for “CCCGCCGCCGTCCCCATCCCCAAGCTCGTTCAGCACCGTCCGGAGTCACCTAGTGCAG”: 8140 fluorescence intensity (a.u.).
The result for “TCCAATCAAACGACCATTCCTGTGTTTTGCAATCCTCTGTCGGAGTCACCTAGTGCAG” reads 11300 fluorescence intensity (a.u.).
The result for “CTCTCTTCTATTCCTTGCTCTCCAGATCTCATCTCCCAGACGGAGTCACCTAGTGCAG” reads 8100 fluorescence intensity (a.u.); that for “TAATCCCAAATCCTCTTATCCCTTTCCGGCGATTTCAATTCGGAGTCACCTAGTGCAG”, 9320 fluorescence intensity (a.u.).
Take “TTCGTGTTCATCGCGTCGGGTCAAATCCCTCCTCTTCTTCCGGAGTCACCTAGTGCAG”: the binding signal is 9850 fluorescence intensity (a.u.).
